{
  "source": "ChEMBL document CHEMBL5036304",
  "about": "“One Atom Makes All the Difference: Getting a Foot in the Door between SOS1 and KRAS” (J Med Chem, 2021)",
  "key": {"[1]": {"test": "physchem", "settings": "buffer, pH 4.5"}, "[2]": {"test": "physchem", "settings": "buffer, pH 6.8"}},
  "data": [
    {"smiles": "COc1cc2nc(C)nc(N[C@H](C)c3cc(N)cc(C(F)(F)F)c3)c2cc1O[C@H]1CCOC1", "values": [
      {"measurement": "solubility", "setting": "[1]", "value": "> 100", "unit": "µg/mL"},
      {"measurement": "solubility", "setting": "[2]", "value": 84, "unit": "µg/mL"}
    ]}
  ]
}
